In patent US20090098175A1 (AFFINERGY, published 2009):
These are yes or no findings as the source states them, for the method shown. Some binding calls cover weakened binding; strength is not graded here.

The chains behind the UniProt entries cited, without tags or fusion partners. Residues count along the entry.
UniProt Q7Z4P5, residues 322-450: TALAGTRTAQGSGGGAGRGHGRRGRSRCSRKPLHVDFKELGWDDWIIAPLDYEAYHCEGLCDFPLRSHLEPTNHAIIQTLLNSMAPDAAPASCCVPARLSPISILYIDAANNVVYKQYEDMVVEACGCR

Target: GDF7 (UniProt Q7Z4P5)
Assay: phage display selection on immobilized GDF-7, phage ELISA; phage-displayed peptide

Row | Binder | binding
1 | SREAHVGWGVFEALQGVTVSR [SEQ ID NO 5] | binds
2 | SSVGWDEFMSLRGVEKKGWSR [SEQ ID NO 6] | binds
3 | SSWEETGWRDFNSLRGREVSR [SEQ ID NO 4] | binds

The remaining lines, values ahead:

Row | binding | Binder
4 | binds | SSGLLGGWSGLQGVELWSSSR [SEQ ID NO 8]
5 | binds | SSPSWDQFQSLVGVPTWAASR [SEQ ID NO 7]
